Data: patent publication EP0977580B1, “MATERIALS AND METHODS RELATING TO INHIBITING THE INTERACTION OF p53 AND mdm2” (UNIVERSITY OF DUNDEE, priority 1997, dated 1998)
At least one compound was matched to its structure with a doubt left. Where a SMILES comes first, the peptide text is derived from it.

Sequences of proteins named here, by UniProt entry; tags and fusion partners are left off. Residues count along the entry.
UniProt Q00987, 1-188: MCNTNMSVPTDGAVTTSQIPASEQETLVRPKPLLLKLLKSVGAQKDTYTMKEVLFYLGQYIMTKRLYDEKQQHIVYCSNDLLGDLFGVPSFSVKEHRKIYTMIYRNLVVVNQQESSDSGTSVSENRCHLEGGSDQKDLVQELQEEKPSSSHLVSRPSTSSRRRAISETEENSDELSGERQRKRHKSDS

Target: p53-mdm2 interaction (GST-mdm2 (1-188) binding to p53) (Homo sapiens, UniProt Q00987)
Assay: Inhibition ELISA of the p53-mdm2 interaction
Conditions: binding of GST-mdm2 (1-188) to p53 coated ELISA plates

**Q.** Which IC50 does the source give for CSCC[C@H](NC(=O)[C@H](Cc1ccccc1)NC(=O)[C@H](CCCNC(=N)N)NC(=O)[C@@H]1CCCN1C(=O)[C@@H](N)CCSC)C(=O)N[C@@H](CC(=O)O)C(=O)N[C@@H](Cc1ccc(O)cc1)C(=O)N[C@@H](Cc1c[nH]c2ccccc12)C(=O)N[C@@H](CCC(=O)O)C(=O)NCC(=O)N[C@@H](CC(C)C)C(=O)N[C@@H](CC(N)=O)C(=O)O [peptide 12/1] (H-MPRFMDYWEGLN-OH; N-terminus and C-terminus assumed) here?
**A.** 0.1 µM
